{"source": "paper PMC5583178", "binders": {"B1": {"name": "TNFR1-associated death domain protein (TRADD), endogenous human (protein, UniProt Q15628 1-312)", "chain": "MAAGQNGHEEWVGSAYLFVESSLDKVVLSDAYAHPQQKVAVYRALQAALAESGGSPDVLQMLKIHRSDPQLIVQLRFCGRQPCGRFLRAYREGALRAALQRSLAAALAQHSVPLQLELRAGAERLDALLADEERCLSCILAQQPDRLRDEELAELEDALRNLKCGSGARGGDGEVASAPLQPPVPSLSEVKPPPPPPPAQTFLFQGQPVVNRPLSLKDQQTFARSVGLKWRKVGRSLQRGCRALRDPALDSLAYEYEREGLYEQAFQLLRRFVQAEGRRATLQRLVEALEENELTSLAEDLLGLTDPNGGLA"}}, "target": "TNF receptor 1 (TNFR1), endogenous human (human (endogenous in HT-29))", "experiment": "co-IP; anti-TNFR1 immunoprecipitation from lysates of HT-29 cells (cont-shRNA, RARγ-shRNA-A, TRADD-shRNA) treated with TSZ; immunoblot", "note": "These are yes or no findings as the source states them, for the method shown. Binding seen in cells or lysates may run through a third protein. A result given as binding can be weak or reduced; the word gives no strength."}
{"binder": "B1", "values": [{"measurement": "binding", "result": "binds"}]}
